Source: the supplement of paper PMC10849652
This is one part of the list. Residues, ends and D or L forms follow the SMILES beside them. *: point of attachment. Cbz = O=C(OCc1ccccc1)*

Sequences of proteins named here, by UniProt entry; tags and fusion partners are left off. A change or cut given only in a name is not applied to a line headed by its entry.
UniProt P13224: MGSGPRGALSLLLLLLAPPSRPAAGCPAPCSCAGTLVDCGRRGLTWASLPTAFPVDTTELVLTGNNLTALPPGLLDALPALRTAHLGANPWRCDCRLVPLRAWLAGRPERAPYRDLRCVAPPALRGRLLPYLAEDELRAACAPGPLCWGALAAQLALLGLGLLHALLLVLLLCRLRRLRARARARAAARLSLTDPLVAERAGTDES
UniProt Q2TAP0: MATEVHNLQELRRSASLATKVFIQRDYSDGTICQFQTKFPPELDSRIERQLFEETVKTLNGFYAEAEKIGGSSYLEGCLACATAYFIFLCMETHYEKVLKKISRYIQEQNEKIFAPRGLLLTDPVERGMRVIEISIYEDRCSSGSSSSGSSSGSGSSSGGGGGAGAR
UniProt Q9NZD2: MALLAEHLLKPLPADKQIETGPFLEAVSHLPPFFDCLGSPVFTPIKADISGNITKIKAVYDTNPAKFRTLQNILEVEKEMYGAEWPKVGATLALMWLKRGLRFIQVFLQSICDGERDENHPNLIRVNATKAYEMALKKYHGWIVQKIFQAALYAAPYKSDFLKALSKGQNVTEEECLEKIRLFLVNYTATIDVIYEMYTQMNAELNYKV
UniProt Q9H9Y4: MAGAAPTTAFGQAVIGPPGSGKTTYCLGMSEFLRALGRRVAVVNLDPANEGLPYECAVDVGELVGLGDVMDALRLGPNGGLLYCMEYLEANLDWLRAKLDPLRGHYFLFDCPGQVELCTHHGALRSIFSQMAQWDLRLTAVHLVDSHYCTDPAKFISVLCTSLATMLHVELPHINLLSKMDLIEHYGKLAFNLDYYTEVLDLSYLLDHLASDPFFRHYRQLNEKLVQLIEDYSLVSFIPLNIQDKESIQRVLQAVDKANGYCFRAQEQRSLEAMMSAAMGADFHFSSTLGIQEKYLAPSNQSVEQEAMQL
UniProt Q92917: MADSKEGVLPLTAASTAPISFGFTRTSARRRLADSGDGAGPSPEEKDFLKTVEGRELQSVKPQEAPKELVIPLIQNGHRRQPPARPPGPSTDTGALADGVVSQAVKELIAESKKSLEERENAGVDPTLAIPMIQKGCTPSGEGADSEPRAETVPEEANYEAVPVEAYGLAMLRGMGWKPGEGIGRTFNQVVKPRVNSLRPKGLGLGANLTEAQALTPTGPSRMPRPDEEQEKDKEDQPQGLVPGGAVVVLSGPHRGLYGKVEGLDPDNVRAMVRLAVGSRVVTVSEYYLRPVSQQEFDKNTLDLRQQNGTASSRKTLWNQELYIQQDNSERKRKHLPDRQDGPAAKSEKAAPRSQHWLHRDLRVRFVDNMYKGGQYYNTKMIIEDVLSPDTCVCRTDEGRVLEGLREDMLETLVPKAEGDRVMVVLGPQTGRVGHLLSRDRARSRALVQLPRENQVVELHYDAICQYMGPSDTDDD
UniProt O14653: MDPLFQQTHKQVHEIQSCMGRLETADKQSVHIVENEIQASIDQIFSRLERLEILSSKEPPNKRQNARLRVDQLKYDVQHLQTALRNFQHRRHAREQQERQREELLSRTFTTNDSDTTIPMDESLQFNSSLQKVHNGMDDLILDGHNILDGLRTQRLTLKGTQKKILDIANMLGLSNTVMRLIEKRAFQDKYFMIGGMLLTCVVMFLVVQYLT
UniProt Q5JWF2, whole entry, looked up: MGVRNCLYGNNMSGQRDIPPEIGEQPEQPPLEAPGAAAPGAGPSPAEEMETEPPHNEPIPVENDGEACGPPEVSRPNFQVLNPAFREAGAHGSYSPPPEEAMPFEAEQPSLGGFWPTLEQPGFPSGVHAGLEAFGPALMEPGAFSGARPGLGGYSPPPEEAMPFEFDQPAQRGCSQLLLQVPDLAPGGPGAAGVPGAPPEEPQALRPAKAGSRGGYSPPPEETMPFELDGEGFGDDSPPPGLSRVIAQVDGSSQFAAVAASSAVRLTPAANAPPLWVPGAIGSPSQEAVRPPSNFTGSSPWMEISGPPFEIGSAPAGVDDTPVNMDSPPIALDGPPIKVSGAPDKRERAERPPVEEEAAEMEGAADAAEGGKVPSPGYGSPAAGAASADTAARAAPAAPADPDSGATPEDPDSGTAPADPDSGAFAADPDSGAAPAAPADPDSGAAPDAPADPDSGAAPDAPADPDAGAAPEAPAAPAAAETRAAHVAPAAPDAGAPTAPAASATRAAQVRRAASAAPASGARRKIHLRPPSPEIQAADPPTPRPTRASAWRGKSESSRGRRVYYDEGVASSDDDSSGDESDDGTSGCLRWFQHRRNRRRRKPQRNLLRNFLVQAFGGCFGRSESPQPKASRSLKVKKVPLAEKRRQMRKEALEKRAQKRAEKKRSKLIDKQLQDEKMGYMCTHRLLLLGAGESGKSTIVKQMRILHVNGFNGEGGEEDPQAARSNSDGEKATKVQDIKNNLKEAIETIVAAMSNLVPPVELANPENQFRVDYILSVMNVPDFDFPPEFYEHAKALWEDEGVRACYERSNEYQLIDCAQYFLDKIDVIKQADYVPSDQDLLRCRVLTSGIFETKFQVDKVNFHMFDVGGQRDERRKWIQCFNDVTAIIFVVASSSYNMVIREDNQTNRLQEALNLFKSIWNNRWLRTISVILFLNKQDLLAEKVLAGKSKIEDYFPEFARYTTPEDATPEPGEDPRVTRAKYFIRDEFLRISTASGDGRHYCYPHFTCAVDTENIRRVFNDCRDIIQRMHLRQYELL
UniProt Q9H4G4: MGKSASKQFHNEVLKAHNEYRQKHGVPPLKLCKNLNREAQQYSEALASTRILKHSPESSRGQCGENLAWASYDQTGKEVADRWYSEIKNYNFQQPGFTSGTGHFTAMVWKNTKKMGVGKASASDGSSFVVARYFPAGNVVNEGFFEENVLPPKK
UniProt P49840: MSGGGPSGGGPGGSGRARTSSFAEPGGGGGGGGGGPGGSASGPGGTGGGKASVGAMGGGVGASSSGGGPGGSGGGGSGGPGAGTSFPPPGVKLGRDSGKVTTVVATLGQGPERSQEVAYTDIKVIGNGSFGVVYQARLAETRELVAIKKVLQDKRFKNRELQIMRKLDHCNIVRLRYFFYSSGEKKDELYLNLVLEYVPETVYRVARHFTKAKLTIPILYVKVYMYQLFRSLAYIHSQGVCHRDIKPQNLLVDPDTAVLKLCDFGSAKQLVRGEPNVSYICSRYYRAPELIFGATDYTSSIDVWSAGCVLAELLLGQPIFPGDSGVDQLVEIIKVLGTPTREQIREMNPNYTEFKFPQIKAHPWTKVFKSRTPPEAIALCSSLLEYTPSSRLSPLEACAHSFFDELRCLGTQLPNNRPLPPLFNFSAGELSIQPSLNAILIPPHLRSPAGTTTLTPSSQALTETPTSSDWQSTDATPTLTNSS
UniProt P22352, whole entry, looked up: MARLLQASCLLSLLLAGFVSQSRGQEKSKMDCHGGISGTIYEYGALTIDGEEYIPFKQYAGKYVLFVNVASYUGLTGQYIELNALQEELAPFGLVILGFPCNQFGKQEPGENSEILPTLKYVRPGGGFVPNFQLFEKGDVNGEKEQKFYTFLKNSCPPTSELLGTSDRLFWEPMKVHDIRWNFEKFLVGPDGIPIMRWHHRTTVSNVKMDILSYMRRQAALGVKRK
UniProt Q9H4A6: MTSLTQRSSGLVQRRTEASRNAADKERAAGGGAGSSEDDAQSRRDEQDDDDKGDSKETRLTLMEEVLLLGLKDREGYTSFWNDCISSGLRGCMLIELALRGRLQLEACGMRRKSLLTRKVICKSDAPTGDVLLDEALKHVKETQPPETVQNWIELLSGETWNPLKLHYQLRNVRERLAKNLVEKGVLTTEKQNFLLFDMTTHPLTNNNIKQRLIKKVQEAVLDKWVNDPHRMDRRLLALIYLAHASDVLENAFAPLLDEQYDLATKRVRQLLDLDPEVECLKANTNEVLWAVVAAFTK
UniProt Q7Z5G4, whole entry, looked up: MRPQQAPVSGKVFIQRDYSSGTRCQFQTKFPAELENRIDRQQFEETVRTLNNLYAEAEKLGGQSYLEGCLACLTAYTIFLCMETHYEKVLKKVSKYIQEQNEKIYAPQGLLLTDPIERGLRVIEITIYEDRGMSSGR
UniProt Q9NPR9: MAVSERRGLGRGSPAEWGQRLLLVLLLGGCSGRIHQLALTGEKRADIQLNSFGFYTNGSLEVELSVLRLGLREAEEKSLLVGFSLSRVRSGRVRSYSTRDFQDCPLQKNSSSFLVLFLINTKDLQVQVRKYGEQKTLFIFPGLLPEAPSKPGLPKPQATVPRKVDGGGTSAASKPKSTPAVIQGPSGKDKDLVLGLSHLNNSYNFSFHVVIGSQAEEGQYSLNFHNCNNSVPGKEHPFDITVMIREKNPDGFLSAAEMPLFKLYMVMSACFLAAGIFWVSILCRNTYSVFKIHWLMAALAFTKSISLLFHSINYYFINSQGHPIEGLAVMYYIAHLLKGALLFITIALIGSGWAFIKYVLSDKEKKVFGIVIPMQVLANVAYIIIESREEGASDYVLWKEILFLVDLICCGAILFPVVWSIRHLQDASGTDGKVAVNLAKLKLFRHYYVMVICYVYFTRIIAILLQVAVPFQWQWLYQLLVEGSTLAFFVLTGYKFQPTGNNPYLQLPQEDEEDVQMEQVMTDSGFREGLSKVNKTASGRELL
UniProt O15228: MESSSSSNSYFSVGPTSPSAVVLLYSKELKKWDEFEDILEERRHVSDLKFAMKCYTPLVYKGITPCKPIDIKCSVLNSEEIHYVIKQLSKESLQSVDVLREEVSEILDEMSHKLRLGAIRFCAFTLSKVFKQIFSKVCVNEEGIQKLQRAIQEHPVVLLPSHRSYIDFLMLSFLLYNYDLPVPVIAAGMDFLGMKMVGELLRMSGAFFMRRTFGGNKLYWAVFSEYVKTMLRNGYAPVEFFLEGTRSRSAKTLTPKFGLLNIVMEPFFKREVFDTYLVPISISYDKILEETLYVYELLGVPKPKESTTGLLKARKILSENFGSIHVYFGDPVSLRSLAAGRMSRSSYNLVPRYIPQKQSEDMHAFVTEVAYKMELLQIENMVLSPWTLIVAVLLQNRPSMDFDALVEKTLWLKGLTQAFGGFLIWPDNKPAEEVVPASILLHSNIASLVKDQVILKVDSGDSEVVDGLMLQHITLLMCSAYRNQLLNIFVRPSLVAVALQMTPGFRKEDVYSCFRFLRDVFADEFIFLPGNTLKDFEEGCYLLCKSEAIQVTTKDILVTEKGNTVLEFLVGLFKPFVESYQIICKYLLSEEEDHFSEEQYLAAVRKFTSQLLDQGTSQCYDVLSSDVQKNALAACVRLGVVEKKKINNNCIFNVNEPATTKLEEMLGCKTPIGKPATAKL
UniProt P15104, whole entry, looked up: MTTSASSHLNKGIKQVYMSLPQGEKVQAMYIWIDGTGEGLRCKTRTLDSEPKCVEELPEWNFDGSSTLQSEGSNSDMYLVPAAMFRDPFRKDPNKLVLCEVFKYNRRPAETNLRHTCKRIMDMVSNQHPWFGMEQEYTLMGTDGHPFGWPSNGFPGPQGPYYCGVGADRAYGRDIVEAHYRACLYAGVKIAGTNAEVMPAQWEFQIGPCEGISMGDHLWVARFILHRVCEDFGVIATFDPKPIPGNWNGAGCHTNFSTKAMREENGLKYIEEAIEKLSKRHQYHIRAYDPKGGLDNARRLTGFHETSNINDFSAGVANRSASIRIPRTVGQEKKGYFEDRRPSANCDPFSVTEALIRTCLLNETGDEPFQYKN
UniProt O94925: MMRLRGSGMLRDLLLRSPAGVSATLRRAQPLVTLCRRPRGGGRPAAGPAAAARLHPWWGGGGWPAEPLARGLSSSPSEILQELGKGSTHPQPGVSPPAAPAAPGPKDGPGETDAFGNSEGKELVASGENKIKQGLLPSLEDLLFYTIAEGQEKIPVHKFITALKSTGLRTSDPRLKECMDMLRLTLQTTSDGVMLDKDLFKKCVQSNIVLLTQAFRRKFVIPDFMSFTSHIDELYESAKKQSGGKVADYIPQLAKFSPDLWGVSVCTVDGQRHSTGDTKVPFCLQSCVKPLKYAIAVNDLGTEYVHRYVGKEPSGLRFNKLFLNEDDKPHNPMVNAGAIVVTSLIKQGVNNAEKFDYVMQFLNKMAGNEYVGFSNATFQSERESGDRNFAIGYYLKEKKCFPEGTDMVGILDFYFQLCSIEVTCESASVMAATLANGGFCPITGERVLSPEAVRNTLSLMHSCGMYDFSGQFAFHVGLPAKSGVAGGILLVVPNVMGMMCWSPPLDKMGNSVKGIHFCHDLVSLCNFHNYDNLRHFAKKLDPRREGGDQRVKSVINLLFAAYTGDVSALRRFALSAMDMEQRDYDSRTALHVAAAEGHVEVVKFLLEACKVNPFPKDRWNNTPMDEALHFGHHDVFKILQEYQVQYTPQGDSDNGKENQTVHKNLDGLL

Assays:
Assay in all cases: log2 fold change, soluble protein after heating vs DMSO (PISA); higher = thermal stabilisation; K562 cells, 10 uM, 30 min; active = over 0.2 and 3.5 SD of the protein, either way, in both replicates (recomputed)
[1] = compound: C#Cc1cccc(Nc2ncnc3cc(OCCOC)c(OCCOC)cc23)c1 [erlotinib]
Procedure, shortened: (§1)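 K562 cells (2×10^6 cells/mL) were treated with 10 μM compound for 30 min, and aliquots were heated for 3 min over 48°C-58°C. Pooled aliquots were extracted in PBS with 0.5% NP-40 at 4°C, and the supernatant after 21,000xg for 90 min was measured by TMTpro 16plex LC-MS/MS with channel sums equalised. Reported thermal stability, relative to control samples and from duplicates, is a log2 fold change.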

[2] = compound: C/C(=N\NC(=O)C1=CC(=CC=C1)S(=O)(=O)N2CCOCC2)/C3=C(C=CC(=C3)Cl)O
Procedure, shortened: as §1

[3] = compound: C1=CC(=C(C=C1Cl)C2=NC3=NC=CN=C3C(=N2)NC4=CC=NC=C4)F
Procedure, shortened: as §1

[4] = compound: C1=CC(=CC=C1C2=NC3=C(N2)C=C(C=C3)C(=O)N)OC4=CC=C(C=C4)Cl
Procedure, shortened: as §1

[5] = compound: C1=CC2=C(C=CC(=C2)/C=C\3/C(=O)NC(=NCC4=CC=CS4)S3)N=C1
Procedure, shortened: as §1

[6] = compound: C1=CC2=NC=CN=C2C=C1/C=C/3\C(=O)NC(=O)S3
Procedure, shortened: as §1

[7] = compound: C1=CC=C2C(=C1)C3=NNC4=CC=CC(=C43)C2=O
Procedure, shortened: as §1

[8] = compound: C1CCN(C1)C(=O)NC2=CC=CC(=C2)NC3=NC=C(C(=N3)NCCC4=CN=CN4)Br
Procedure, shortened: as §1

[9] = compound: C1CN(CCC1(CC2=CC=C(C=C2)Cl)N)C3=NC=NC4=C3C=CN4
Procedure, shortened: as §1

[10] = compound: C1COCCN1CCN2C3=CC=CC=C3N=C2NC(=O)C4=CC(=CC=C4)[N+](=O)[O-] [IRAK-1-4 Inhibitor I]
Procedure, shortened: as §1

[11] = compound: C=CC(=O)N1CCC[C@@H](n2nc(-c3ccc(Oc4ccccc4)cc3)c3c(N)ncnc32)C1 [ibrutinib]
Procedure, shortened: as §1

[12] = compound: CC(=O)c1cnc2ccc(-c3cc(Cl)c(O)c(Cl)c3)nc2c1N[C@H]1CC[C@H](CN(C)C)CC1
Procedure, shortened: as §1

[13] = compound: CC(C)(O)CC(=O)NCCn1ccc2ncnc(Nc3ccc(Oc4cccc(C(F)(F)F)c4)c(Cl)c3)c21
Procedure, shortened: as §1

[14] = compound: CC(C)C1=C2N=C(C=C(N2N=C1)NCC3=CC=CC=C3)NCCCCCCN
Procedure, shortened: as §1

[15] = compound: CC(C)N(C[C@H]1O[C@@H](n2cnc3c(N)ncnc32)[C@H](O)[C@@H]1O)[C@H]1C[C@@H](CCc2nc3cc(C(C)(C)C)ccc3[nH]2)C1 [pinometostat]
Procedure, shortened: as §1

[16] = compound: CC1=C(C(CC(=O)N1)C2=CC=C(C=C2)C(F)(F)F)C(=O)NC3=C(C=C4C(=C3)C=NN4)F
Procedure, shortened: as §1

[17] = compound: CC1=C(C2=C(C=C1)C(=O)C3=CC=CC=C3N2CCCN)C
Procedure, shortened: as §1

[18] = compound: C1=CC=C(C=C1)C2=NC(=C(N2)C3=CC=NC=C3)C4=CC(=C(C=C4)Cl)O
Procedure, shortened: as §1

[19] = compound: CC(C)(C)Cn1c(N)nc2ccc(-c3[nH]c(C(C)(C)C)nc3-c3ccc(F)cc3)nc21 [ralimetinib]
Procedure, shortened: as §1

[20] = compound: CC(C)C[C@@H](C=O)NC(=O)[C@H](CC(C)C)NC(=O)[C@H](CC(C)C)NC(=O)OCc1ccccc1
Procedure, shortened: as §1

Target	log2 fold change [1]	log2 fold change [2]	log2 fold change [3]	log2 fold change [4]	log2 fold change [5]	log2 fold change [6]	log2 fold change [7]	log2 fold change [8]	log2 fold change [9]	log2 fold change [10]	log2 fold change [11]	log2 fold change [12]	log2 fold change [13]	log2 fold change [14]	log2 fold change [15]	log2 fold change [16]	log2 fold change [17]	log2 fold change [18]	log2 fold change [19]	log2 fold change [20]
GP1BB isoform 2 (UniProt P13224)	inactive: -0.042	inactive: -0.006	inactive: 0.002	inactive: 0.031	inactive: -0.027	inactive: -0.009	inactive: -0.024	inactive: -0.04	inactive: 0.012	inactive: -0.009	inactive: 0.006	inactive: 0.018	inactive: 0.093	inactive: 0.027	inactive: 0.018	inactive: -0.005	inactive: 0.001	–	–	–
GOLGA7B (UniProt Q2TAP0)	inactive: -0.105	inactive: 0.024	–	inactive: 0.057	inactive: -0.026	inactive: 0.07	inactive: -0.03	inactive: -0.168	inactive: 0.109	inactive: -0.022	inactive: -0.004	inactive: -0.093	–	inactive: -0.079	inactive: 0.032	inactive: 0.015	inactive: 0.048	inactive: -0.063	inactive: -0.108	inactive: 0.075
GLTP (UniProt Q9NZD2)	inactive: -0.007	inactive: -0.123	–	inactive: -0.019	inactive: 0.127	inactive: -0.009	inactive: 0.015	inactive: -0.032	inactive: -0.101	–	inactive: 0.15	inactive: 0.098	–	inactive: 0.081	–	inactive: -0.017	inactive: 0.096	inactive: -0.136	inactive: 0.012	inactive: -0.054
GPN2 (UniProt Q9H9Y4)	inactive: -0.039	inactive: -0.085	–	inactive: 0.109	inactive: 0.017	inactive: 0.064	inactive: 0.004	inactive: 0.004	inactive: 0.05	inactive: -0.018	inactive: -0.021	inactive: -0.05	–	inactive: 0.026	inactive: -0.007	inactive: 0.052	inactive: 0.021	inactive: -0.058	inactive: -0.042	inactive: 0.033
GPKOW (UniProt Q92917)	inactive: 0.099	inactive: 0.116	inactive: 0.016	inactive: 0.016	inactive: 0.057	inactive: 0.013	inactive: 0.029	inactive: -0.011	inactive: 0.001	inactive: -0.016	inactive: -0.005	inactive: -0.172	inactive: -0.026	inactive: -0.184	inactive: 0.047	–	inactive: 0.056	inactive: -0.016	inactive: -0.08	inactive: 0.006
GOSR2 isoform 2 (UniProt O14653)	inactive: 0.034	inactive: 0.144	–	inactive: 0.031	inactive: -0.145	inactive: 0.027	inactive: -0.016	inactive: -0.078	inactive: -0.035	inactive: -0.019	inactive: -0.036	inactive: 0.062	–	inactive: -0.124	inactive: -0.088	inactive: -0.084	inactive: 0.052	inactive: 0.052	inactive: -0.045	inactive: -0.04
GNAS (UniProt Q5JWF2)	inactive: 0.001	inactive: 0.042	inactive: -0.032	inactive: 0.043	inactive: 0.026	inactive: 0.021	inactive: 0.011	inactive: -0.011	inactive: 0.043	inactive: -0.04	inactive: 0.001	inactive: -0.059	inactive: 0.022	inactive: 0.041	inactive: 0	–	inactive: 0.073	inactive: 0.02	inactive: 0.009	inactive: -0.009
GLIPR2 (UniProt Q9H4G4)	inactive: 0.039	inactive: 0.054	inactive: -0.035	inactive: 0.15	inactive: 0.023	inactive: -0.019	inactive: -0.028	inactive: 0.045	inactive: -0.058	inactive: 0.038	inactive: -0.047	inactive: -0.01	inactive: 0.06	active: -0.35	inactive: 0.03	–	inactive: 0.061	inactive: -0.062	inactive: 0.04	inactive: 0.012
GSK3A (UniProt P49840)	inactive: -0.02	inactive: 0.015	inactive: 0.01	inactive: 0.045	inactive: -0.001	inactive: -0.001	inactive: 0.147	inactive: 0.131	inactive: 0.019	inactive: 0.099	inactive: 0.011	active: 0.303	inactive: -0.107	inactive: 0.011	inactive: -0.031	–	inactive: 0.022	inactive: 0.18	inactive: -0.061	inactive: -0.022
GPX3 (UniProt P22352)	inactive: -0.217	inactive: -0.089	inactive: 0.052	inactive: 0.015	inactive: -0.046	inactive: -0.048	inactive: -0.053	inactive: -0.192	inactive: 0.143	–	inactive: 0.022	inactive: -0.128	inactive: 0.049	inactive: 0.113	–	–	inactive: -0.08	inactive: -0.106	inactive: -0.207	inactive: 0.076
GOLPH3 (UniProt Q9H4A6)	inactive: 0.008	inactive: 0.073	inactive: 0.104	inactive: -0.014	inactive: 0.011	inactive: 0.008	inactive: -0.007	inactive: -0.101	inactive: 0.043	inactive: 0.033	inactive: -0.035	inactive: -0.023	inactive: -0.031	active: 0.31	inactive: -0.013	–	inactive: -0.028	inactive: 0.051	inactive: -0.005	inactive: -0.005
GOLGA7 (UniProt Q7Z5G4)	inactive: 0.059	inactive: 0.023	inactive: 0.121	inactive: 0.033	inactive: -0.008	inactive: 0.081	inactive: -0.035	inactive: -0.06	inactive: 0.032	inactive: 0.04	inactive: -0.017	inactive: -0.111	inactive: -0.126	inactive: 0.018	inactive: 0.021	inactive: -0.028	inactive: 0.091	–	–	–
GPR108 (UniProt Q9NPR9)	inactive: -0.031	inactive: 0.004	inactive: -0.042	inactive: 0.036	inactive: 0.005	inactive: 0.036	inactive: -0.006	inactive: 0.016	inactive: 0.05	–	inactive: 0.035	inactive: -0.048	inactive: 0.005	inactive: -0.065	–	inactive: -0.015	inactive: 0.012	inactive: 0.019	inactive: 0.082	inactive: 0.125
GNPAT (UniProt O15228)	inactive: 0.067	inactive: 0.112	inactive: 0.075	inactive: -0.001	inactive: 0.073	inactive: 0.03	inactive: 0.019	inactive: -0.003	inactive: 0.058	inactive: 0.026	inactive: -0.007	inactive: -0.017	inactive: -0.053	inactive: -0.018	inactive: -0.018	–	inactive: 0.024	inactive: 0.057	inactive: 0.02	inactive: -0.014
GLUL (UniProt P15104)	inactive: -0.058	inactive: 0.016	inactive: 0.027	inactive: 0.022	inactive: -0.006	inactive: -0.003	inactive: -0.045	inactive: -0.037	inactive: 0.017	inactive: 0.054	inactive: 0.009	inactive: -0.049	inactive: 0.018	inactive: 0.058	inactive: -0.021	–	inactive: -0.058	inactive: -0.007	inactive: -0.02	inactive: -0.013
GOPC (UniProt Q9HD26)	inactive: 0.016	inactive: 0.051	inactive: -0.284	inactive: -0.178	inactive: -0.027	inactive: -0.147	inactive: 0.265	inactive: -0.036	inactive: 0.06	inactive: -0.119	inactive: -0.104	inactive: 0.03	inactive: -0.04	inactive: 0.046	inactive: 0.174	–	inactive: 0.085	inactive: -0.008	inactive: 0.259	inactive: 0.083
GPI (UniProt P06744)	inactive: 0.015	inactive: 0.018	inactive: 0.059	inactive: -0.026	inactive: -0.018	inactive: -0.019	inactive: 0.019	inactive: -0.023	inactive: 0.021	–	inactive: -0.003	inactive: -0.039	inactive: 0.016	inactive: 0.022	inactive: -0.043	inactive: -0.002	inactive: 0.001	inactive: 0.001	inactive: -0.083	inactive: -0.029
GLS (UniProt O94925)	inactive: 0.003	inactive: 0.105	inactive: 0.174	inactive: -0.107	inactive: -0.043	inactive: 0.14	inactive: -0.023	inactive: -0.091	inactive: -0.03	inactive: 0.051	inactive: -0.096	inactive: 0.002	inactive: -0.14	inactive: 0.004	inactive: -0.037	–	inactive: 0.002	inactive: 0.034	inactive: -0.071	inactive: 0.032

Complete entries from above. Values in the order: log2 fold change [1] | log2 fold change [2] | log2 fold change [3] | log2 fold change [4] | log2 fold change [5] | log2 fold change [6] | log2 fold change [7] | log2 fold change [8] | log2 fold change [9] | log2 fold change [10] | log2 fold change [11] | log2 fold change [12] | log2 fold change [13] | log2 fold change [14] | log2 fold change [15] | log2 fold change [16] | log2 fold change [17] | log2 fold change [18] | log2 fold change [19] | log2 fold change [20]
GPR108 (UniProt Q9NPR9) in the list: inactive: -0.031 | inactive: 0.004 | inactive: -0.042 | inactive: 0.036 | inactive: 0.005 | inactive: 0.036 | inactive: -0.006 | inactive: 0.016 | inactive: 0.05 | – | inactive: 0.035 | inactive: -0.048 | inactive: 0.005 | inactive: -0.065 | – | inactive: -0.015 | inactive: 0.012 | inactive: 0.019 | inactive: 0.082 | inactive: 0.125
GOSR2 isoform 2 (UniProt O14653) in the list: inactive: 0.034 | inactive: 0.144 | – | inactive: 0.031 | inactive: -0.145 | inactive: 0.027 | inactive: -0.016 | inactive: -0.078 | inactive: -0.035 | inactive: -0.019 | inactive: -0.036 | inactive: 0.062 | – | inactive: -0.124 | inactive: -0.088 | inactive: -0.084 | inactive: 0.052 | inactive: 0.052 | inactive: -0.045 | inactive: -0.04
